Assay results taken from the supplement of paper PMC12067093, “Discovery and optimisation of a covalent ligand for TRIM25 and its application to targeted protein ubiquitination” (Chemical Science, 2025).
This is one part of the list.

Amino acid sequences for entries named in this document (tags omitted). A change or cut given only in a name is not applied to a line headed by its entry.
UniProt P52564: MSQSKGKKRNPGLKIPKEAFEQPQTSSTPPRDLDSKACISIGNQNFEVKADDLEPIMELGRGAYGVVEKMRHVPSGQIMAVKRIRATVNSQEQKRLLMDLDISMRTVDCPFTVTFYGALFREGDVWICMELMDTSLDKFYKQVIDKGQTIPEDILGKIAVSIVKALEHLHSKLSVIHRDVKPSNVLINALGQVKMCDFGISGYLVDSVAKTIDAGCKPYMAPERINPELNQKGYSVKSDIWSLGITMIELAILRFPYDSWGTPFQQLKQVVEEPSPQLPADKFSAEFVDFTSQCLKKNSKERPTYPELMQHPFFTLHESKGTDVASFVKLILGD
UniProt Q9Y6X3: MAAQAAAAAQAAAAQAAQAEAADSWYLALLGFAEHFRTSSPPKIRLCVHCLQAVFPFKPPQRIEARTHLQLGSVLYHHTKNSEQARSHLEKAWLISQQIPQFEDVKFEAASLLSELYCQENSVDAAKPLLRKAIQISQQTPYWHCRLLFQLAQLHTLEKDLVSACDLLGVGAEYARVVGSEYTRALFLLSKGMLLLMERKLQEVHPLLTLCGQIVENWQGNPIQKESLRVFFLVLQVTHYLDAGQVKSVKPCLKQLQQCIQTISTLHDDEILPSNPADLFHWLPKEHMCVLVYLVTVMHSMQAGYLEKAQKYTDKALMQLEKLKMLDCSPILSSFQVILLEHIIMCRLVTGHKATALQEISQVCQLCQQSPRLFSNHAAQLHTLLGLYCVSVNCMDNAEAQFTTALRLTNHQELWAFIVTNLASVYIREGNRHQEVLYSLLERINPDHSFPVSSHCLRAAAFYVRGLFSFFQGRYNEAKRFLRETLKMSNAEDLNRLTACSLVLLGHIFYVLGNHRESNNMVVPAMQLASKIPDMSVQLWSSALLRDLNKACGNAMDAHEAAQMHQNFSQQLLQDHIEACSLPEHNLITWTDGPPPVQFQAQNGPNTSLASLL
UniProt P46734: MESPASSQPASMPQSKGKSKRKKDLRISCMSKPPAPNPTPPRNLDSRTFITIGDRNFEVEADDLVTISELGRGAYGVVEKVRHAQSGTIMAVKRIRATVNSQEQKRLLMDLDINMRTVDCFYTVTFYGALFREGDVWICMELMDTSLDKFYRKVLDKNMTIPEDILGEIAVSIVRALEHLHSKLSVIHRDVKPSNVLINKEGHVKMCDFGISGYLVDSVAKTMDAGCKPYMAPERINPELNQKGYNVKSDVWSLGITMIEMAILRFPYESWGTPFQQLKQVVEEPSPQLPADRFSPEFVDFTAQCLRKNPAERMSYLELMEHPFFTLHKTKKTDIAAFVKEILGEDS
UniProt Q96GW9: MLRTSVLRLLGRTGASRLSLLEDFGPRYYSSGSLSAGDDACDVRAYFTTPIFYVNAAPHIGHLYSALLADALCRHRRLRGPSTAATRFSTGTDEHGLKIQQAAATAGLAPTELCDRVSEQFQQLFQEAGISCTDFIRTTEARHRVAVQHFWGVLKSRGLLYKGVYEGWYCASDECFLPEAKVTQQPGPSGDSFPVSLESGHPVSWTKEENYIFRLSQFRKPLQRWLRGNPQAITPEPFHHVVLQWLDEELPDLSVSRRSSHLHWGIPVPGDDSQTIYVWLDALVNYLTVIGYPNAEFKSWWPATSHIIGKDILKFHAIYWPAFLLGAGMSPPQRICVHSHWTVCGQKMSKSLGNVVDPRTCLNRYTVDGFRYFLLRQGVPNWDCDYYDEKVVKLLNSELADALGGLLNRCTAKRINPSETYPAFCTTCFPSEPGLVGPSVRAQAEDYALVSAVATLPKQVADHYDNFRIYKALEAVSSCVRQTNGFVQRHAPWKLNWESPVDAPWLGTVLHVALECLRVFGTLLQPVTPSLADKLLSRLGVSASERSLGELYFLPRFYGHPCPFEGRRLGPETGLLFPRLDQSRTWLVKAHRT
UniProt Q66K74: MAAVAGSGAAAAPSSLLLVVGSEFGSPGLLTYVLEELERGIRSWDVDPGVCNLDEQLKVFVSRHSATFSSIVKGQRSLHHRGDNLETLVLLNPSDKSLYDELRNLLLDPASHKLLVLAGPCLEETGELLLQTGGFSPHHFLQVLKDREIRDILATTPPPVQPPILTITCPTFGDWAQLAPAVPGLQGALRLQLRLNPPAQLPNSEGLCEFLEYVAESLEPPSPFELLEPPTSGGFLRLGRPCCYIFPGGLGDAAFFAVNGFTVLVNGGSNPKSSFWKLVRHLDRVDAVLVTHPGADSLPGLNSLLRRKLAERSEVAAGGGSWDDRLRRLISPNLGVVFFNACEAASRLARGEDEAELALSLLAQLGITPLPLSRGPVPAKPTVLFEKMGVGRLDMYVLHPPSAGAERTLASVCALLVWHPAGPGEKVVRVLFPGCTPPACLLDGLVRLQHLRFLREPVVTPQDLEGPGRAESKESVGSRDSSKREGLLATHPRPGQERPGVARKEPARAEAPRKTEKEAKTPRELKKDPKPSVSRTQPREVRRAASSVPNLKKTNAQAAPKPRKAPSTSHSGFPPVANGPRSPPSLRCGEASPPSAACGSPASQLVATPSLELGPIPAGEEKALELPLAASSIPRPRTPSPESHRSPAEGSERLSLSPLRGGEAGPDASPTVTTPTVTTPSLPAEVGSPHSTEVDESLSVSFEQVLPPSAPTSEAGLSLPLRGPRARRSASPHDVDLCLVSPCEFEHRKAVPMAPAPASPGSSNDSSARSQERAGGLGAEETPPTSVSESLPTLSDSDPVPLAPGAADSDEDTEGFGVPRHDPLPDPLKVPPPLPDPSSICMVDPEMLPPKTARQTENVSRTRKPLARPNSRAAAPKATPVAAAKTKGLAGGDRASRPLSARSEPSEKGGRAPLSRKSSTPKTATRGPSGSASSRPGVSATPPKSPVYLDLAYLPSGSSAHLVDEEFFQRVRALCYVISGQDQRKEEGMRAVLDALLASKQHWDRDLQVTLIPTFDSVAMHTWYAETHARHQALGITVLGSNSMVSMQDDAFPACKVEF
UniProt Q9UDY8: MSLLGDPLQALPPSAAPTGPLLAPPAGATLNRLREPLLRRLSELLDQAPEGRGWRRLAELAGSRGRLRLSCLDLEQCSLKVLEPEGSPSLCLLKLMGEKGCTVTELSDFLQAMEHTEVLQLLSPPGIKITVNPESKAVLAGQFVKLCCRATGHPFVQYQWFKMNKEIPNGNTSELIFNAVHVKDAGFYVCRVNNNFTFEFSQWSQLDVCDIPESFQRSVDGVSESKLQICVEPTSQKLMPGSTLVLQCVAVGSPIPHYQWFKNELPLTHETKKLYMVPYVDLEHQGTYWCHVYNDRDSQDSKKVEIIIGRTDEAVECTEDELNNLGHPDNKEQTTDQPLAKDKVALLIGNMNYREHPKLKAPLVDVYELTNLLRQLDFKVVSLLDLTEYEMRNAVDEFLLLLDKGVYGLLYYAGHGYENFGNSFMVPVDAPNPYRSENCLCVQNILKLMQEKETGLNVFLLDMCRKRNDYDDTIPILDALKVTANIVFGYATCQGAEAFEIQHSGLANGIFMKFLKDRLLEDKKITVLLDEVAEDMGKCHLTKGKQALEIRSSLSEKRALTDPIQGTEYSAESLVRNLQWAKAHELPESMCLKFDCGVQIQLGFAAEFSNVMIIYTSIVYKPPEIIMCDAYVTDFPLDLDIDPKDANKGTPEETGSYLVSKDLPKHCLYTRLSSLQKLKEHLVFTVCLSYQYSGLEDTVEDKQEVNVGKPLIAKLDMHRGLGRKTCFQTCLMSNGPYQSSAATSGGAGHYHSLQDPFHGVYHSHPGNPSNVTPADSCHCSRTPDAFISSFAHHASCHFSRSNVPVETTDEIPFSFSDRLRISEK
UniProt P43243: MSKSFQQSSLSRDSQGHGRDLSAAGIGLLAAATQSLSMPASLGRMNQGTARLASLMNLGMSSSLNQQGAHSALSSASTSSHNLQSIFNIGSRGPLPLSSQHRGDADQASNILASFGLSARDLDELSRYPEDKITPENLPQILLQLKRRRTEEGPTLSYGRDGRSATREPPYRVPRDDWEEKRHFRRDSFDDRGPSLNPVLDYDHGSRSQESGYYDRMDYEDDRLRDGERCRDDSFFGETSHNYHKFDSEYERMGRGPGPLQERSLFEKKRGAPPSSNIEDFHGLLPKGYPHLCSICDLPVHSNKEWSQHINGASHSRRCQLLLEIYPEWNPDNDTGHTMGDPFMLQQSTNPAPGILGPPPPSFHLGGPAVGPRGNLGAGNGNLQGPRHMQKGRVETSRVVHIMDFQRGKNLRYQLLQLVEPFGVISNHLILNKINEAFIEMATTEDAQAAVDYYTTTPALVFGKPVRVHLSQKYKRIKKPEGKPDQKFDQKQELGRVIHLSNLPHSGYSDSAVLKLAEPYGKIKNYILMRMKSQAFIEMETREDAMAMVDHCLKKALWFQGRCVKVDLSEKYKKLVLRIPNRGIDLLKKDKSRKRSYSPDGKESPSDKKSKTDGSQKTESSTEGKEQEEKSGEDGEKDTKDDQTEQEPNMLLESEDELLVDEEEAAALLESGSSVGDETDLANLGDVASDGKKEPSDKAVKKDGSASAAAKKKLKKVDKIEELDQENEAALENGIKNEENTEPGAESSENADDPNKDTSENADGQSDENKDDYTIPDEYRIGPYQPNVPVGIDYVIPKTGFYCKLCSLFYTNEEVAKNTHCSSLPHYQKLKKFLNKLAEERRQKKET
UniProt O75608: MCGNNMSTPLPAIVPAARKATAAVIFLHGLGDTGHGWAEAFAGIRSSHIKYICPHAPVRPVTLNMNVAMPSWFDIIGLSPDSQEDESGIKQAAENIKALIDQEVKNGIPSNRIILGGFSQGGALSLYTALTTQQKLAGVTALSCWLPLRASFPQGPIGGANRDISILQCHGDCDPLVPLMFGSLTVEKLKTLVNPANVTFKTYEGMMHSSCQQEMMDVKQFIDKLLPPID
UniProt Q13233: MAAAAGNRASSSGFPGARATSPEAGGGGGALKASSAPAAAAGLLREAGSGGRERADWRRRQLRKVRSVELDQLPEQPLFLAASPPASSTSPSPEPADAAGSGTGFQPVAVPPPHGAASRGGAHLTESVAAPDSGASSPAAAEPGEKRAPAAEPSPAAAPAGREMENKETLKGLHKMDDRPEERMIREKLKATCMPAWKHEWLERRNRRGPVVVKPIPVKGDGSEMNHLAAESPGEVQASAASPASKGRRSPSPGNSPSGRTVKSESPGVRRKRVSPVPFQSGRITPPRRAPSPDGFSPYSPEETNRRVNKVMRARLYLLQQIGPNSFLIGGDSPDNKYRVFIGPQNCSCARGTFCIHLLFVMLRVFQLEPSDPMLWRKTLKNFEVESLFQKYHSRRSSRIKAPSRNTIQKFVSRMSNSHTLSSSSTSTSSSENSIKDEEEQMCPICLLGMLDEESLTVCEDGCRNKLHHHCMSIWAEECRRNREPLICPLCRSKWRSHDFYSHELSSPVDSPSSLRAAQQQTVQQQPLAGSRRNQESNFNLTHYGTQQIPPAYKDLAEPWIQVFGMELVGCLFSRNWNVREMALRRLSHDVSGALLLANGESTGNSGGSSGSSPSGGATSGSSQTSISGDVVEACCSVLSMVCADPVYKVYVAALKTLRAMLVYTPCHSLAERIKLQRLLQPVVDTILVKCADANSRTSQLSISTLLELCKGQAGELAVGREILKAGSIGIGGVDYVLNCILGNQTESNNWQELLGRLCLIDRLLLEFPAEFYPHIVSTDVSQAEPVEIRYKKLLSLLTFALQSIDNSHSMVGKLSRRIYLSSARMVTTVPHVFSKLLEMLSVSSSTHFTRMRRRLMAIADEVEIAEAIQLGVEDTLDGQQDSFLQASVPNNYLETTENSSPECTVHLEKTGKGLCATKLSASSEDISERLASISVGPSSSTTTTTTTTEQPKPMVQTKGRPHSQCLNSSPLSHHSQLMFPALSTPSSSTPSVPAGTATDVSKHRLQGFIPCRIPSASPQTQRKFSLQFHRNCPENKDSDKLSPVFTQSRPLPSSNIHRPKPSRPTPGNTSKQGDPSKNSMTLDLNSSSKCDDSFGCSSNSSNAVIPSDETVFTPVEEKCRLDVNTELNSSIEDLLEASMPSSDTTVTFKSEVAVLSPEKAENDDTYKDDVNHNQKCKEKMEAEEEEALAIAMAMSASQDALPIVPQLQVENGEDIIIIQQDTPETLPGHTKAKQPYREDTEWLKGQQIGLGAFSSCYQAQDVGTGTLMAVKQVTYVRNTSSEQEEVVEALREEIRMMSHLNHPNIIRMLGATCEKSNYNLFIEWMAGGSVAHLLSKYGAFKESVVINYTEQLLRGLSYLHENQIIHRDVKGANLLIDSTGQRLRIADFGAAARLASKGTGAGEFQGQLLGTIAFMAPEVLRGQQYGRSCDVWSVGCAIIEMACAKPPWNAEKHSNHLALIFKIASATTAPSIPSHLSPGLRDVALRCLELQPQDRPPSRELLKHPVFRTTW

compound: Cc1cc(ccc1-c1ccccc1)C(=O)N1CCCN(CC1)C(=O)CCl [compound 10]; experiment: probe-labelled cysteine peptide fold change vs DMSO (competition) (log2 fold change); higher = less target engagement (more negative = stronger competition); conditions: 50 µM; THP-1; incubation time: 4 h
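Further: competitive profiling in live THP-1 cells: cysteine peptides tagged with an iodoacetamide desthiobiotin (IA-DTB) probe, intensity after compound treatment relative to DMSO-treated cells.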

Target | probe-labelled cysteine peptide fold change
MBLAC2_Q68D91_212_ISDYVGTCER (UniProt Q68D91) | 0.0236
MAP2K6_P52564_294_FSAEFVDFTSQCLK (UniProt P52564) | 0.2
MAU2_Q9Y6X3_145_AIQISQQTPYWHCR (UniProt Q9Y6X3) | -0.302
LY75_O60449_1060_YHCALILNLQK (UniProt O60449) | 0.209
MAT2B_Q9NZL9_263_YEMACAIADAFNLPSSHLRPITDSPVLGAQRPR (UniProt Q9NZL9) | -0.121
LZTS1_Q9Y250_450_GLELEVCENELQR (UniProt Q9Y250) | 0.191
LUC7L_Q9NQ29_97_DLFFELDAMDHLESFIAECDRR (UniProt Q9NQ29) | 0.299
MBNL2_Q5VZF2_43_SCQVENGR (UniProt Q5VZF2) | -0.198
MAP2K3_P46734_29_ISCMSKPPAPNPTPPR (UniProt P46734) | -0.621
MACF1_Q9UPN3_3619_QQNTCHQQLEDLCSWVGQAER (UniProt Q9UPN3) | -0.151
MARS2_Q96GW9_336+344_ICVHSHWTVCGQK (UniProt Q96GW9) | 0.146
MAP7D1_Q3KQU3_373_SASASPLTPCSVTR (UniProt Q3KQU3) | -0.225
MAP1S_Q66K74_440_VLFPGCTPPACLLDGLVR (UniProt Q66K74) | 0.127
MALT1_Q9UDY8_667_HCLYTR (UniProt Q9UDY8) | -0.319
MATR3_P43243_293+296_GYPHLCSICDLPVHSNK (UniProt P43243) | 0.0146
LYPLA1_O75608_173_DISILQCHGDCDPLVPLMFGSLTVEK (UniProt O75608) | -0.0155
MAP3K1_Q13233_1012_LQGFIPCR (UniProt Q13233) | -0.389
MAP1S_Q66K74_975_ALCYVISGQDQR (UniProt Q66K74) | 0.0479
MAGT1_Q9H0U3_90_QCVVCK (UniProt Q9H0U3) | 0.0992
LYST_Q99698_1855_VHELENCNGLSMIHQVLIK (UniProt Q99698) | 0.0164
